# Library compounds against nucleic acid targets

Data from the ROBIN nucleic acid binder screens, doi:10.1002/anie.202211358.

Targets (5′ to 3′):
SAM-II: SAM-II riboswitch RNA pseudoknot, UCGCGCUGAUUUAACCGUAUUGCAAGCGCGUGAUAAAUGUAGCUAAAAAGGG. About 21,000 compounds screened, about 200 hits.

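Compounds were printed on reactive glass slides in duplicate spots, a dye-labelled oligonucleotide was laid over them, and the fluorescence left after washing was read. For the PreQ1, TPP and SAM-II riboswitches the laboratory earlier reported (doi:10.1038/s41467-019-09493-3) 1 µM RNA, 2 h, and a rule that included a mean Z-score above 3 (spot signal-to-noise against the whole library), a score well above that on a control array, and duplicate spots agreeing (coefficient of variation under 100). The data file gives only the calls; its cut-offs may differ, and compounds hitting several targets are kept. A missing hit is not proof of no binding, and a hit is not a measured affinity.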 “hit” means called a hit, “none” means screened and not called a hit. The compounds are a random part of those screened.

Compound | SAM-II
Cc1cccc(Cl)c1OCCNC(=O)c1cn(CCN)nn1 | hit
CCOC(=O)c1cc[nH]c1CC(=O)NC | none
C[C@@H](CN1CC(=O)NC(=O)C1)N1CC(=O)NC(=O)C1 | none
CCCCOCC1CC2(CC(C)(c3csc(N)n3)OC2=O)C(=O)O1 (configuration not stated) | none
NC=C1C(=O)N(c2ccccc2)C(=O)N(c2ccccc2)C1=O | none
Oc1ccc(C=Cc2cc(O)cc(O)c2)cc1 | none
O=C(O)C(c1ccc(-c2ccccc2)cc1)N1CCN(CCCCO)CC1 (configuration not stated) | none
Cc1ccc2nc(Cl)cc(=O)n2c1 | none
OC[C@H]1O[C@@H](OCCc2ccc(O)cc2)[C@H](O)[C@@H](O)[C@@H]1O | none
CN1CCN(c2nc3c(N)ncn(CC(O)CO)c-3n2)CC1 (configuration not stated) | none
O=C(Nc1cc(C(=O)N2CCCC2)ccc1Cl)N1C[C@H]2CC[C@@H](C1)NC2 | none
O=C([O-])C[C@H](O)C[C@H](O)C=Cc1c(C2CC2)nc2ccccc2c1-c1ccc(F)cc1 | none
CCC[C@H]1CN(CCCO)C[C@@H]1NC(=O)Cn1cc(C)cn1 | none
Cc1c(C(=O)NN=Cc2c[nH]c3ccccc23)nnn1-c1nonc1N | none
CCCc1nnsc1C(=O)N1CCC2(CC1)OCCCC2O (configuration not stated) | none
CC1(C)Cc2c(c(-c3ccco3)nc3sc4c(NCCN5CCOCC5)ncnc4c23)CO1 | none
CC(C)c1nc(CCN(C)c2nccc(N3CCCC(O)C3)n2)no1 (configuration not stated) | none
O=C(Nc1ccc(Cl)c(Cl)c1)Nc1ccccc1O | none
Cc1c(C)n(CCO)c2ncn3nc(Cc4ccccc4)nc3c12 | none
Nc1nc2c(s1)CN(C(=O)c1csc(-c3cccs3)n1)CC2 | none
OC[C@]12COc3ccccc3[C@H]1CN(Cc1ncccn1)C2 | none
CCCCS(=O)(=O)N1C[C@H](C2CC2)[C@@H](N)C1 | none
Clc1ccc(-c2cn(CCNc3ccccc3)nn2)cn1 | none
COc1ccc(C2Sc3ccccc3N(CCN(C)C)C(=O)C2OC(C)=O)cc1 (configuration not stated) | none
CCCC(C)C1C(C#N)=C(N)OC2=C1C(=O)CCC2 (configuration not stated) | none
CSc1nc(N)cc(N2C[C@@H]3CC[C@H](C2)N(CC2CC2)C3=O)n1 | none
Cc1ccc(NC(=O)c2ccc(CN3CCN(C)CC3)cc2)cc1Nc1nccc(-c2cccnc2)n1 | none
COc1ccccc1-n1cc(C(=O)N2C[C@H](c3ccc(C)o3)[C@@H](N)C2)cn1 | none
O=C(NCC(O)COC1CCCCC1)c1cnn2cc(CCO)cnc12 (configuration not stated) | none
COc1ccc(NCc2nc(=O)n(Cc3ccc(Cl)cc3)[nH]2)cc1 | none
O=S(=O)(NCC1(O)CCCNCC1)c1ccc(-c2ccccn2)s1 (configuration not stated) | none
O=[N+]([O-])c1c(N2CCN(CCO)CC2)nc2ccccn12 | none
CCCc1nc2sc3c(NCCN(C)C)ncnc3c2c2c1CCCC2 | none
Cc1ccc(-c2cc(-c3cccc(CN4CCOCC4)c3)c(C#N)c(N)n2)o1 | none
Cc1c(S(=O)(=O)c2ccc(F)cc2)c(N)n(Cc2ccc(Cl)cc2)c1C | none
Cc1nc(CCNC(=O)c2n[nH]c(N)c2-c2ccccc2)sc1C | none
COc1cccc([C@@H]2CCN(Cc3cnc(-c4ccccn4)nc3)C[C@H]2O)c1 | none
O=C(c1cnco1)N1CCN(Cc2cnn3cccnc23)CC(O)C1 (configuration not stated) | none
CC(C)N(Cc1ccccc1)S(=O)(=O)c1nnc(C(C)(C)C)[nH]1 | none
Cc1[nH]nc2c1C(c1cccc(Cl)c1Cl)C(C#N)=C(N)O2 (configuration not stated) | none
O=C1C=C(NCC2CCCO2)C2(CCCCC2)O1 (configuration not stated) | none
CN1[C@@H]2CCC[C@H]1CC(NC(=O)c1nn(C)c3ccccc13)C2.Cl (some centres not stated) | none
C=CCN(Cc1nc(-c2ccccc2)no1)C(=O)CC1=CCNCC1 | none
Cc1c(S(=O)(=O)c2ccc(Cl)cc2)c(N)n(C(C)C)c1C | none
Cc1ccc([C@H]2CN(C(=O)CCc3c(C)nc4ncnn4c3C)C[C@@H]2N)o1 | none
O=C(N1CCOCC1)N1CCN(c2ncnc3[nH]ccc23)CC(O)C1 (configuration not stated) | none
Cc1nnc2c(Nc3ccc(Br)cc3F)nc3ccccc3n12 | none
Cc1c(C)n(Cc2ccccc2)c2ncnc(NCCO)c12 | none
CC(C)COCC1CC2(CC(C)(c3csc(N)n3)OC2=O)C(=O)O1 (configuration not stated) | none
N#Cc1c(N)nc2c(c1-c1ccc(C(N)=O)cc1)CCc1cc(O)ccc1-2 | none
O=C(/C=C/c1cccnc1)/C=C/c1cccnc1 | none
Cc1ccc(C2C(C#N)=C(N)OC3=C2S(=O)(=O)N(Cc2ccc(F)cc2)c2ccccc23)cc1 (configuration not stated) | none
CCCCNCCOc1ccc(I)cc1.O=C(O)C(=O)O | none
CN(C)c1ccc(CNC2CCCCC2)cc1 | none
CN1CC2(CCNCC2)CC1C(=O)NC1CCN(Cc2cccnc2)CC1 (configuration not stated) | none
O=C1NCCc2c1sc1ccc(C(=O)N3Cc4ccccc4C(O)C3)cc21 (configuration not stated) | none
Nc1nnc(SCC(=O)N2CCc3[nH]cnc3C2)s1 | none
Nc1cccc(Cl)c1N1CCOCC1 | none
C[C@H](N)CNC(=O)c1ccccc1-c1nc[nH]n1 | none
OC1CN(Cc2ccoc2)CCN(Cc2cc(C3CC3)n[nH]2)C1 (configuration not stated) | none
COc1ccccc1OC1CCN(C(C(=O)O)c2ccc(CO)cc2)CC1 (configuration not stated) | none